Test results published in paper PMC9925317.
Results are given in words; binding and its absence hold for the method and conditions named. In cells and extracts the contact can be indirect. A yes stands for co-enrichment or nearness to the bait. Other partners may have been found. Tags and fused reporters may be left off the sequences shown.

Protein sequences, listed by entry. Tags and fused reporters are not part of them.
UniProt Q14839: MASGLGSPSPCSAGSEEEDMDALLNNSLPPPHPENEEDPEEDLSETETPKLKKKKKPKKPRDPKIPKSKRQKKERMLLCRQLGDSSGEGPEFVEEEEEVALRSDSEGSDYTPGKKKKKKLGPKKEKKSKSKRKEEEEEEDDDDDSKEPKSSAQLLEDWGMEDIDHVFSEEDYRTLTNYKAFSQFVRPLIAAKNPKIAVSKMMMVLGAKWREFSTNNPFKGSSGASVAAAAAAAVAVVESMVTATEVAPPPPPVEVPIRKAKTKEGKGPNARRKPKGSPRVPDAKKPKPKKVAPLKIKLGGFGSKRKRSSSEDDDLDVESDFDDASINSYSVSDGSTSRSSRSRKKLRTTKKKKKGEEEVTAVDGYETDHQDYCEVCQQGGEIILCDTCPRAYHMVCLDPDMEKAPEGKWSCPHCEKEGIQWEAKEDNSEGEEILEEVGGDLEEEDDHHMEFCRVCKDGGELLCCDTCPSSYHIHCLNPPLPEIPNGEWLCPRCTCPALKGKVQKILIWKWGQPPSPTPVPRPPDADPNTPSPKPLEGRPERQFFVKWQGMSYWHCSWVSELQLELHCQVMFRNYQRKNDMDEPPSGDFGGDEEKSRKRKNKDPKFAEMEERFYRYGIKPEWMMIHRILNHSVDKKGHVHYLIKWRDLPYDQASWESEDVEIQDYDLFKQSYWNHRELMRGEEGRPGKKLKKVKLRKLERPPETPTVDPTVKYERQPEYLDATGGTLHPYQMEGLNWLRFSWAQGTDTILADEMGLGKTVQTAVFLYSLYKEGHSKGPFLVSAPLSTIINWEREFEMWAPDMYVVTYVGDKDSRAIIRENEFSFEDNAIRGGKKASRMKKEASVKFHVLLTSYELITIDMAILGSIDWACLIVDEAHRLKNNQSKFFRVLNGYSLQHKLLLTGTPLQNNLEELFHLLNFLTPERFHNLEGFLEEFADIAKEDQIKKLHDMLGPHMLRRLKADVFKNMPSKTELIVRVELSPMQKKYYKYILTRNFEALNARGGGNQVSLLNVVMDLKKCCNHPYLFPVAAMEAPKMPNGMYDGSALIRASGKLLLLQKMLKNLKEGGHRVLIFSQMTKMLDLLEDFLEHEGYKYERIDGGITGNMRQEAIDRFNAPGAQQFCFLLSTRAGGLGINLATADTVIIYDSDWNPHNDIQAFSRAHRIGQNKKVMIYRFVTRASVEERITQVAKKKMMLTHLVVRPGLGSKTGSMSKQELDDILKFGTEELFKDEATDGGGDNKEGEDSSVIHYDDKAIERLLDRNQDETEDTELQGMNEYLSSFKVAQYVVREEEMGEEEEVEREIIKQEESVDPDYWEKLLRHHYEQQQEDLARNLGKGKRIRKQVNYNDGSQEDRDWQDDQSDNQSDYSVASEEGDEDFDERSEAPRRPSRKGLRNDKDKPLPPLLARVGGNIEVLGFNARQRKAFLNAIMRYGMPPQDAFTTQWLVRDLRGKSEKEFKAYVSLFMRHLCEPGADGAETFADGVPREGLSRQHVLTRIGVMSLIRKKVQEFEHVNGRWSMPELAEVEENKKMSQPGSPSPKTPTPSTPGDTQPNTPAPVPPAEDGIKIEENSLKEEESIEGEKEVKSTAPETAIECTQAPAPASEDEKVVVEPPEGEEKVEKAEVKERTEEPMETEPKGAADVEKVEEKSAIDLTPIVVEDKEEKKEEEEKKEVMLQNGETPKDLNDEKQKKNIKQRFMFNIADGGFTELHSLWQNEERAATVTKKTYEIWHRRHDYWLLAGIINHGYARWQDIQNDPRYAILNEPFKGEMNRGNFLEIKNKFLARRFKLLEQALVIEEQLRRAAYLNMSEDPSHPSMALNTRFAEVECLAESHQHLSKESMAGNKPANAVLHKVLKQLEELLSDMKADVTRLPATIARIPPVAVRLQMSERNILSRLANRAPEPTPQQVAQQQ
UniProt P68400: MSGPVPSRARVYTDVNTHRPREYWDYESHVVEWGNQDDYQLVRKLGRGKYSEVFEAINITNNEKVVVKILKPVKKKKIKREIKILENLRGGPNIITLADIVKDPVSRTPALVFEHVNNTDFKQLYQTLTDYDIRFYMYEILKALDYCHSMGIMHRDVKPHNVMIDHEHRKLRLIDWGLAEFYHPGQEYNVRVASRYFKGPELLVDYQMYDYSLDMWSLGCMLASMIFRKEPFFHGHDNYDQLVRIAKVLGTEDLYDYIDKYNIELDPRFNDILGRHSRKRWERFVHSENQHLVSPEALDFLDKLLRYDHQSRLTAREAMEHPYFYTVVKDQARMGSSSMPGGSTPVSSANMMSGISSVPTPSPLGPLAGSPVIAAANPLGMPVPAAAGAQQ
UniProt P13010: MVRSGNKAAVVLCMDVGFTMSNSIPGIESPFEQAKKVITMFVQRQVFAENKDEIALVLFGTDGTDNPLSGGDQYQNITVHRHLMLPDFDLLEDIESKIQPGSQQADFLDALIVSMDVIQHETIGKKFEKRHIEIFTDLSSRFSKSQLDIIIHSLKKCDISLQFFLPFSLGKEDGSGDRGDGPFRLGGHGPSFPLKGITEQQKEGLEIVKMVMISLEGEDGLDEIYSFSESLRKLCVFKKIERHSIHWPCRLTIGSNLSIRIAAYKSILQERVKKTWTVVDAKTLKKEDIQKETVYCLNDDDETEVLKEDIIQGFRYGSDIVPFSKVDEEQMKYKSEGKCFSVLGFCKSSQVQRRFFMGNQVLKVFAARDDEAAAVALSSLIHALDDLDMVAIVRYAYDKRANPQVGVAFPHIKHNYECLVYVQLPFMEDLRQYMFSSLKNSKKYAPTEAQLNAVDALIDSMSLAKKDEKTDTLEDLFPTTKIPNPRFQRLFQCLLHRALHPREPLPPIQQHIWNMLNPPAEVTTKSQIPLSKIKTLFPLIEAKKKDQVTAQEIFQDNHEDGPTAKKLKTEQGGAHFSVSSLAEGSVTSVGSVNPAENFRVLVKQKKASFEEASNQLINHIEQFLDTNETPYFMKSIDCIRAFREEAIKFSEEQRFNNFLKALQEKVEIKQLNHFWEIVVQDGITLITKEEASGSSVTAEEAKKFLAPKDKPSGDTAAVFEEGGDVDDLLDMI

Biological target: T1, SUMOylated MORC2 (WT Flag-MORC2 co-expressed with GFP-SUMOs in HEK293T cells) (human) (UniProt Q9Y6X9)
T1 sequence (chain, SUMO (GFP-SUMO1, GFP-SUMO2, GFP-SUMO3 co-expressed) conjugated at lysine 767): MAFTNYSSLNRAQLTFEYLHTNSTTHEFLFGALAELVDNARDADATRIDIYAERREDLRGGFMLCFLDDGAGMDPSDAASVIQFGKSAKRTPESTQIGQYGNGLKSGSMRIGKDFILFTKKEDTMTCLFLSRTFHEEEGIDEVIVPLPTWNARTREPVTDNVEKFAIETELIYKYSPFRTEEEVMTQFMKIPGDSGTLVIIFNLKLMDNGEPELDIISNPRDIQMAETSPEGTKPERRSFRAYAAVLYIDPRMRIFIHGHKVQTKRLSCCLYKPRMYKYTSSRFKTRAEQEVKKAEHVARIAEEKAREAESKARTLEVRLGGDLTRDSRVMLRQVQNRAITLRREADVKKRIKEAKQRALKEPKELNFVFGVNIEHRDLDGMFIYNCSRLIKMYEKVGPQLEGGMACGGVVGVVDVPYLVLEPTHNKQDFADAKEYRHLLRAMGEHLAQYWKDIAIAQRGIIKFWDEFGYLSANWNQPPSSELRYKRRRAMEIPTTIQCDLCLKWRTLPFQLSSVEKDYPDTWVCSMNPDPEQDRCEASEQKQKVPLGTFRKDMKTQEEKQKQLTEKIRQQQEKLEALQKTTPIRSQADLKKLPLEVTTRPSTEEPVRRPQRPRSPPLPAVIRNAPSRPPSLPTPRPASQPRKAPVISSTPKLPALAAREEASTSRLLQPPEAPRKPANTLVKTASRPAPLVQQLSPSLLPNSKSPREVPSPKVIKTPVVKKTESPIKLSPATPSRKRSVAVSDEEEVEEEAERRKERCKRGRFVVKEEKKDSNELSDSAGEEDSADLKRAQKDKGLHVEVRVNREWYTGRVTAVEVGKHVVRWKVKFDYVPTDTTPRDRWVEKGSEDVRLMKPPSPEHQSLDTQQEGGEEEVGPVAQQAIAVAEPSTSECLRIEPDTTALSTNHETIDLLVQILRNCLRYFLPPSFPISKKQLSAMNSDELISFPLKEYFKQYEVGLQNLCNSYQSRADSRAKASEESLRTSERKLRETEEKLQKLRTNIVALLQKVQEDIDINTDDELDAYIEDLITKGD
Assay: affinity purification with mass spectrometry; HEK293T cells transfected with WT-MORC2 and GFP-SUMOs; anti-Flag beads; SDS-PAGE, LC-MS/MS; proteins found in the pCDH control taken as nonspecific

| binding | Substance |
| --- | --- |
| binds | endogenous CHD4 (chromodomain helicase DNA binding protein 4) (from UniProt Q14839 1-1912) (enzyme) |
| binds | endogenous CSK21 (casein kinase II subunit alpha) (from UniProt P68400 1-391) (enzyme) |
| binds | endogenous XRCC5 (X-ray repair cross complementing 5) (from UniProt P13010 1-732) |
